Measurements published in paper PMC6966961.
Substitutions are numbered along the chain they refer to. Results are given in words; binding and its absence hold for the method and conditions named. Some results given as binding are weak or reduced against the parent protein; the word gives no strength. Values belong to the binder of their own block, whether it stands above or below them.

What was measured:
Experiment in all cases: two-hybrid; split ubiquitin yeast two hybrid (SUB Y2H) in S. cerevisiae NMY51; AtPIP1;1 in pMetYCgate (CubPLV), other AtPIPs in pXNgate (NubG); positive transformants 10-fold serially diluted, spotted on SD-WLAH plates, 30°C, 2 days; the same transformants also grown in liquid SD-WLAH (OD600 after 2 days)
[1] = molecular target: T1, AtPIP1;1 (Arabidopsis thaliana ecotype Col-0) (UniProt P61837)
T1 sequence: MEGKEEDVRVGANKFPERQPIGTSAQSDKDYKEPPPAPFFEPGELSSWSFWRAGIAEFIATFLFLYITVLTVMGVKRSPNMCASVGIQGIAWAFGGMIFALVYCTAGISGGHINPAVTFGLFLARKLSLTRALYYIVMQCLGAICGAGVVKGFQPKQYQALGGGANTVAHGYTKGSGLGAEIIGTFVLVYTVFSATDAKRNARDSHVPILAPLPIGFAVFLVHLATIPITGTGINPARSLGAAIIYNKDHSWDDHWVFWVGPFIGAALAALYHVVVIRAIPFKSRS

[2] = molecular target: 1;1A100V (AtPIP1;1 mutant, with alanine at site of 100 mutated into valine) (Arabidopsis thaliana ecotype Col-0) (UniProt P61837)
[3] = molecular target: T2, 1;1Q88L (AtPIP1;1 mutant, with glutamine at site of 88 mutated into leucine) (Arabidopsis thaliana ecotype Col-0) (UniProt P61837)
T2 sequence: T1 sequence with Q88L

[4] = molecular target: AtPIP2;4 (Arabidopsis thaliana ecotype Col-0) (UniProt Q9FF53)
[5] = molecular target: 2;4L81Q (AtPIP2;4 mutant, with leucine at site of 81 mutated into glutamine) (Arabidopsis thaliana ecotype Col-0) (UniProt Q9FF53)
[6] = molecular target: 2;4V93A (AtPIP2;4 mutant, with valine at site of 100 mutated into alanine) (Arabidopsis thaliana ecotype Col-0) (UniProt Q9FF53)

B2: 1;1A100V (AtPIP1;1 mutant, with alanine at site of 100 mutated into valine) (protein, UniProt P61837 1-286)
chain: T1 sequence with A100V
- binding [2]: binds weakly

B3: 1;1Q88L (AtPIP1;1 mutant, with glutamine at site of 88 mutated into leucine) (protein, UniProt P61837 1-286)
chain: T1 sequence with Q88L
- binding [3]: binds weakly

B6: 2;4L81Q (AtPIP2;4 mutant, with leucine at site of 81 mutated into glutamine) (protein, UniProt Q9FF53 1-291)
chain: MAKDLDVNESGPPAARDYKDPPPAPFFDMEELRKWPLYRAVIAEFVATLLFLYVSILTVIGYKAQTDATAGGVDCGGVGIQGIAWAFGGMIFVLVYCTAGISGGHINPAVTVGLFLARKVSLVRTVLYIVAQCLGAICGCGFVKAFQSSYYTRYGGGANELADGYNKGTGLGAEIIGTFVLVYTVFSATDPKRNARDSHVPVLAPLPIGFAVFMVHLATIPITGTGINPARSFGAAVIYNNEKAWDDQWIFWVGPMIGAAAAAFYHQFILRAAAIKALGSFGSFGSFRSFA
- binding [5]: binds

B7: 2;4V93A (AtPIP2;4 mutant, with valine at site of 100 mutated into alanine) (protein, UniProt Q9FF53 1-291)
chain: B6 chain with Q81L, V93A
- binding [6]: binds

The remaining lines, values ahead:

- binding [1]: binds weakly
B1: AtPIP1;1 (protein, UniProt P61837 1-286)
chain: T1 sequence

- binding [1]: binds
- binding [3]: binds
B4: 2;4ΔTM2/1;1TM2 (protein, UniProt Q9FF53 1-291)
chain: B6 chain with V93A

- binding [1]: binds
- binding [4]: binds
B5: AtPIP2;4 (protein, UniProt Q9FF53 1-291)
chain: B6 chain with Q81L
